For assay [1], the target named is RhoA, endogenous (human (endogenous in HCC cells)) (UniProt P61586). In words: co-IP; endogenous proteins in cell lysate; protein A/G agarose beads coupled with primary antibodies, 8 h rotation at 4 °C, western blot.
Assay [2] has as its target T1, GEF-H1 (human (endogenous in HepG2 and Huh7)) (UniProt Q92974).
T1 sequence: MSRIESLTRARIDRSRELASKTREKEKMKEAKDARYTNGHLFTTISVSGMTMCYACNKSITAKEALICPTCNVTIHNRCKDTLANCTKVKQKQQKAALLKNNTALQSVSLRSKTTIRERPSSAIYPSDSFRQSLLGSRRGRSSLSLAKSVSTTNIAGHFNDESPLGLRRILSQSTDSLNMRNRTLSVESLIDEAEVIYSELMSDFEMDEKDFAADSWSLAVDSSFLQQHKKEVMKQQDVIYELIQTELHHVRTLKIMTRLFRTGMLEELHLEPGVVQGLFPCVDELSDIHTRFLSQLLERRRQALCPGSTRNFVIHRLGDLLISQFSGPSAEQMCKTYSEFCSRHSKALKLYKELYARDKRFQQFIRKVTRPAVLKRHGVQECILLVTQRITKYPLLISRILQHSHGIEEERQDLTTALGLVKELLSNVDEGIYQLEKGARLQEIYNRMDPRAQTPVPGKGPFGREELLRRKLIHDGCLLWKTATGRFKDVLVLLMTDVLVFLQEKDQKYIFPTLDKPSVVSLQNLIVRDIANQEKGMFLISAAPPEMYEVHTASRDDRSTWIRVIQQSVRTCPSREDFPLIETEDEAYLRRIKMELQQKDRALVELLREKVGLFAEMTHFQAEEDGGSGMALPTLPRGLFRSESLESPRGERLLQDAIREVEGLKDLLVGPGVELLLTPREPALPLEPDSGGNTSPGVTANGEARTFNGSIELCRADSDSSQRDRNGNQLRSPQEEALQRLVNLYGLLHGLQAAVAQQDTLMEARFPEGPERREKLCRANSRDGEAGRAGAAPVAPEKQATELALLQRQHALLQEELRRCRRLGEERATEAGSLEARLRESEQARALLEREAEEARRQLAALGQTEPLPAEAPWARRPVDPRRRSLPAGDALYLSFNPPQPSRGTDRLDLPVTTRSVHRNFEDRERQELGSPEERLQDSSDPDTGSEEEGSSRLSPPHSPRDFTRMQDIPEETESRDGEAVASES
The assay is described as follows: co-IP; lysates of HCC cells with SEPT11 overexpression or control (HepG2 and Huh7 named for Fig. 7D); protein A/G agarose beads coupled with primary antibodies, 8 h at 4 °C, western blot. For orientation: A western blot detects proteins with antibodies after separation by electrophoresis.

Amino acid sequences for entries named in this document (tags omitted).
UniProt P61586: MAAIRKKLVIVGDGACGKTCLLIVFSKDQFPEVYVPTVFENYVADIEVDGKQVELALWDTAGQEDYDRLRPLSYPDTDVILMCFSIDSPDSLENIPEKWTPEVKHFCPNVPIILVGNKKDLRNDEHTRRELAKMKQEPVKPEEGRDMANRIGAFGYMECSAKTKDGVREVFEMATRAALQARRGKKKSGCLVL

The target in assay [3] is RhoA in the Co-IP with exogenous tag plasmids (UniProt P61586). In words: co-IP; Co-IP with exogenous tag plasmid (full-length Flag-SEPT11 and SEPT11 fragments transfected); protein A/G agarose beads coupled with primary antibodies, 8 h at 4 °C, western blot.

Three molecules from publication PMC10119145 can be followed below.

Results are given in words; binding and its absence hold for the method and conditions named. Binding seen in cells or lysates may run through a third protein. For part of these data: Tags and fused reporters may be left off the sequences shown.

B1: SEPT11 (Septin11), endogenous (protein, UniProt Q9NVA2 1-429)
chain: MAVAVGRPSNEELRNLSLSGHVGFDSLPDQLVNKSTSQGFCFNILCVGETGIGKSTLMDTLFNTKFESDPATHNEPGVRLKARSYELQESNVRLKLTIVDTVGFGDQINKDDSYKPIVEYIDAQFEAYLQEELKIKRSLFNYHDTRIHACLYFIAPTGHSLKSLDLVTMKKLDSKVNIIPIIAKADTIAKNELHKFKSKIMSELVSNGVQIYQFPTDEETVAEINATMSVHLPFAVVGSTEEVKIGNKMAKARQYPWGVVQVENENHCDFVKLREMLIRVNMEDLREQTHTRHYELYRRCKLEEMGFKDTDPDSKPFSLQETYEAKRNEFLGELQKKEEEMRQMFVMRVKEKEAELKEAEKELHEKFDLLKRTHQEEKKKVEDKKKELEEEVNNFQKKKAAAQLLQSQAQQSGAQQTKKDKDKKNASFT
Consider B1, for which the binding entry in assay [1] is on record as “no binding”.

B2: SEPT11, overexpressed in HepG2 and Huh7 cells (protein, UniProt Q9NVA2 1-429)
chain: B1 chain
B2: in assay [2], the binding result is reported as “no binding”.

B3: Flag-SEPT11, full-length (protein, UniProt Q9NVA2 1-429)
chain: B1 chain
In the case of B3, the binding entry in assay [3] is on record as “no binding”.
